# ± gives the standard deviation of the averaged measurements. The list shows a part of the results, in another mix than the full data.
# Key:
# Test in all cases: NP40-soluble protein abundance relative to vehicle (solubility fold change) (ratio); higher = more soluble protein in presence of AMP-PNP
# [1] = target: T1, PIBF1 (UniProt Q8WXW3)
# T1 sequence (whole entry): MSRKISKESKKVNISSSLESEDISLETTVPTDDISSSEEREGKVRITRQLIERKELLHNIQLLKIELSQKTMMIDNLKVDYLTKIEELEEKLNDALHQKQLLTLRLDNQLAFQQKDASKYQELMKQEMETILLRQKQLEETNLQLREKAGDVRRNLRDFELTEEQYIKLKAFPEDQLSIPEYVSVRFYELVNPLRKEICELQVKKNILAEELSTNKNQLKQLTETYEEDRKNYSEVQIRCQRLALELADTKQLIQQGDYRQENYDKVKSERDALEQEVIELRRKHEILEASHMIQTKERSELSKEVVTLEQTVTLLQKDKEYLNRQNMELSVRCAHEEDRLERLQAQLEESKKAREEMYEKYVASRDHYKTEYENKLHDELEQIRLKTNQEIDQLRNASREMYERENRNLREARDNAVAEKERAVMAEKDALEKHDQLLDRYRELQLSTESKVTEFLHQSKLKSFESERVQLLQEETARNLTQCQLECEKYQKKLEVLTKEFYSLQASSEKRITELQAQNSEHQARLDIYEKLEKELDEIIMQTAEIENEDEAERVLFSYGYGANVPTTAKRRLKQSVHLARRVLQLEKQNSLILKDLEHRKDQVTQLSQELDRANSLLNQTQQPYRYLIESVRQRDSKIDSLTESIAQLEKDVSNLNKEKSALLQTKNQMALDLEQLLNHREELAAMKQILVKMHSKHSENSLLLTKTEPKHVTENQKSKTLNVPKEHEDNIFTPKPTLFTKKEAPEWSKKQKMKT
# Procedure, shortened: (§1)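 Jurkat crude lysate prepared with a Dounce homogeniser was treated at eight concentrations spanning 0.1 to 10 mM, 10 min at room temperature then 3 min at 37 °C. Solubilisation with 0.8% NP40 and benzonase and ultracentrifugation preceded TMT labelling of the supernatant for LC-MS/MS. Fold change against the detergent-processed vehicle was determined per replicate from vsn-normalised intensities, across three independent experiments.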
# [2] = target: T2, RBM15B (UniProt Q8NDT2)
# T2 sequence (whole entry): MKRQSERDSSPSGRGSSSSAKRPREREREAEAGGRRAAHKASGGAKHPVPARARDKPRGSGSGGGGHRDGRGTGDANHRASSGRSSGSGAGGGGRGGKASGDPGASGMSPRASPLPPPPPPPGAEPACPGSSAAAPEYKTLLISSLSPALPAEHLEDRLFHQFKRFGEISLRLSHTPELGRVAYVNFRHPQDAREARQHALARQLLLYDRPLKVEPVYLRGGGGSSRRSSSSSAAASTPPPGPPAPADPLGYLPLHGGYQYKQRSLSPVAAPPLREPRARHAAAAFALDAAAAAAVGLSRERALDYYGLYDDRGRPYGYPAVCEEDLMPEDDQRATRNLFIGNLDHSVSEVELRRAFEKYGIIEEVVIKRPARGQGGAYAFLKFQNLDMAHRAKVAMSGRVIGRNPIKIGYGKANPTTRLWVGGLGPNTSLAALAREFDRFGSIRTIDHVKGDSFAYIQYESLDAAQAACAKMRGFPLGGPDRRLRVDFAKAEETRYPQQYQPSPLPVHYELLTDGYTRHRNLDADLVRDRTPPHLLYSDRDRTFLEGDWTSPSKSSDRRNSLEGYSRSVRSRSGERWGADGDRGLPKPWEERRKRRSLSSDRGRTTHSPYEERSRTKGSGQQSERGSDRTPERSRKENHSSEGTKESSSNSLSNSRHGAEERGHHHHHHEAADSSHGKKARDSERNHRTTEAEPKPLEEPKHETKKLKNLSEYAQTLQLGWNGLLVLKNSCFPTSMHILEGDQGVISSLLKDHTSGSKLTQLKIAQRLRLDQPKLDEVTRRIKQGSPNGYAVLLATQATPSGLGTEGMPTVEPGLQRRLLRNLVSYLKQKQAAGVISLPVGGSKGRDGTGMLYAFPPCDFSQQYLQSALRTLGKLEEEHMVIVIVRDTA
# Procedure, shortened: as §1
# [3] = target: T3, SEMA4D (UniProt Q92854)
# T3 sequence (whole entry): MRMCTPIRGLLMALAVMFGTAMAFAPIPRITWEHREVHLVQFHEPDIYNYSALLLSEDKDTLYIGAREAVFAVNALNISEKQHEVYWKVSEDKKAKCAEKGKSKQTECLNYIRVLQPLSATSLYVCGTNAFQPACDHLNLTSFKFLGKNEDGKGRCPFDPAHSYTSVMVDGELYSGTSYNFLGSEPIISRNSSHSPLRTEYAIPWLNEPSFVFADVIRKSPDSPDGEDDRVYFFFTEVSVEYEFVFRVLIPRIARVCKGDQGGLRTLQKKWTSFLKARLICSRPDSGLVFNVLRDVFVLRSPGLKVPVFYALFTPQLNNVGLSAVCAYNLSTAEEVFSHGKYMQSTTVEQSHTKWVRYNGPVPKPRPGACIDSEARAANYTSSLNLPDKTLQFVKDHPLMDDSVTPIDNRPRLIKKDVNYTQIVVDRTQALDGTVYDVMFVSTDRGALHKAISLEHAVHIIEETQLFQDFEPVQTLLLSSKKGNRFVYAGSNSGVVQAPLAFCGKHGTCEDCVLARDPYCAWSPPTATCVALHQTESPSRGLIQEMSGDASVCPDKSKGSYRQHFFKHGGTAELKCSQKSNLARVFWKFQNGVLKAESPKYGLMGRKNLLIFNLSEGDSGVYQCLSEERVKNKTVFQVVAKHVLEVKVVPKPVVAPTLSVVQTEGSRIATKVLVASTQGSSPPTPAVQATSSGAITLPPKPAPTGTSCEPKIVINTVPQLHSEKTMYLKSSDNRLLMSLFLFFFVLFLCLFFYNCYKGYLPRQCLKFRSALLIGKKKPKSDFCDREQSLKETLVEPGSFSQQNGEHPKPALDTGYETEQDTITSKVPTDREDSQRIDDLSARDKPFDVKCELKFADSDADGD
# Procedure, shortened: as §1
# [4] = target: T4, SYMPK (UniProt Q92797)
# T4 sequence (whole entry): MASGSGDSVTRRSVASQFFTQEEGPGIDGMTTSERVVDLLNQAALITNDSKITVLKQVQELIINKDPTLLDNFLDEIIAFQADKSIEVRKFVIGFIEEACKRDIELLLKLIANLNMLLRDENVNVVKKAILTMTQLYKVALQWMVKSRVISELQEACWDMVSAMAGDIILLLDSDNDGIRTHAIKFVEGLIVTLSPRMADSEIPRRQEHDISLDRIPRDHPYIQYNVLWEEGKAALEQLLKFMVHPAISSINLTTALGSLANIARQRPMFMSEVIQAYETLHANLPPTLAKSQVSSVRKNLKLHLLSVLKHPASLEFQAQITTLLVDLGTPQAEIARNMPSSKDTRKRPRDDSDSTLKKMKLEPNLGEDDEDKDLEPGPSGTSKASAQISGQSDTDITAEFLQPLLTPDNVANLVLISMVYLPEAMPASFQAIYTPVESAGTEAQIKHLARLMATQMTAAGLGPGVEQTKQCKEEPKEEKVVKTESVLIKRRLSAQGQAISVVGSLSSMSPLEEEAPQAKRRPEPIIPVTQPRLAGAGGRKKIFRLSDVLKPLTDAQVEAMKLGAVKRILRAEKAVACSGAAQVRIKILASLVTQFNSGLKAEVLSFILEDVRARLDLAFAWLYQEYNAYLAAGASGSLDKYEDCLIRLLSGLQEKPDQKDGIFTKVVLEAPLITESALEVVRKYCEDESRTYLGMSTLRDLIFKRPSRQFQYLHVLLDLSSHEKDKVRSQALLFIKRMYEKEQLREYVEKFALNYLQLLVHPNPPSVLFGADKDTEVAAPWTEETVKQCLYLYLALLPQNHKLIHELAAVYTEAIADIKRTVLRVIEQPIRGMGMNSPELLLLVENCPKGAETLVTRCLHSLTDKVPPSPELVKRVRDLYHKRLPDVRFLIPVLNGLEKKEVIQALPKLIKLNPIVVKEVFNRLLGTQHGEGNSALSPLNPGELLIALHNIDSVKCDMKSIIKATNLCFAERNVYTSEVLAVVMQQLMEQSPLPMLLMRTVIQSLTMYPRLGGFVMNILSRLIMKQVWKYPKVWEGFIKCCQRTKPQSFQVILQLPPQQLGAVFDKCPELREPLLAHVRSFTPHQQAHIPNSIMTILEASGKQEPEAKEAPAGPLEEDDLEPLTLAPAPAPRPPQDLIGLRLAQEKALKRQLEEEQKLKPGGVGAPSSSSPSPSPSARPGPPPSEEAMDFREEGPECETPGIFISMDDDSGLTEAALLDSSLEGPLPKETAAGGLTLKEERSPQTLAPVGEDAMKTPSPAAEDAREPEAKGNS
# Procedure, shortened: as §1
# [5] = target: T5, UBLCP1 (UniProt Q8WVY7)
# T5 sequence (whole entry): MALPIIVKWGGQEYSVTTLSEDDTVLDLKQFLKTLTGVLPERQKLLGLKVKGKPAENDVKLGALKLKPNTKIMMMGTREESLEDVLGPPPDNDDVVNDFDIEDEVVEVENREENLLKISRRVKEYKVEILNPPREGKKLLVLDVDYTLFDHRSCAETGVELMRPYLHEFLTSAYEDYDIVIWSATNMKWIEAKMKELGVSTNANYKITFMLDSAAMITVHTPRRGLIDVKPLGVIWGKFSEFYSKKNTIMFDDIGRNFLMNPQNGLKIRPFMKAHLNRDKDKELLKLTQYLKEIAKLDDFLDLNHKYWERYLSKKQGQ
# Procedure, shortened: as §1
# [6] = target: T6, UniProt Q8NBZ7 and related entries
# T6 sequence (whole entry): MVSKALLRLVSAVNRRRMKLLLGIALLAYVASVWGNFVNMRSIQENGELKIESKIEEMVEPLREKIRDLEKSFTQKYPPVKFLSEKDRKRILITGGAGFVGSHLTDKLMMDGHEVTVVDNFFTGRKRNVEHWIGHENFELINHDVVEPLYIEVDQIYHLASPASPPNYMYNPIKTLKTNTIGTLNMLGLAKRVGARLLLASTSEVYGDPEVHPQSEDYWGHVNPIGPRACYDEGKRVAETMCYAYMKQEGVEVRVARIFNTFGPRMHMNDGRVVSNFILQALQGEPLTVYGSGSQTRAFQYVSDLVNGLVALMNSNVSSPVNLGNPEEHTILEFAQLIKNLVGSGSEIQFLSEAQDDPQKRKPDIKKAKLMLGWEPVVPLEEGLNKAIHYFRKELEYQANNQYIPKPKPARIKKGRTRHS
# Procedure, shortened: as §1
# [7] = target: T7, UniProt Q8NCE2-2
# T7 sequence (whole entry): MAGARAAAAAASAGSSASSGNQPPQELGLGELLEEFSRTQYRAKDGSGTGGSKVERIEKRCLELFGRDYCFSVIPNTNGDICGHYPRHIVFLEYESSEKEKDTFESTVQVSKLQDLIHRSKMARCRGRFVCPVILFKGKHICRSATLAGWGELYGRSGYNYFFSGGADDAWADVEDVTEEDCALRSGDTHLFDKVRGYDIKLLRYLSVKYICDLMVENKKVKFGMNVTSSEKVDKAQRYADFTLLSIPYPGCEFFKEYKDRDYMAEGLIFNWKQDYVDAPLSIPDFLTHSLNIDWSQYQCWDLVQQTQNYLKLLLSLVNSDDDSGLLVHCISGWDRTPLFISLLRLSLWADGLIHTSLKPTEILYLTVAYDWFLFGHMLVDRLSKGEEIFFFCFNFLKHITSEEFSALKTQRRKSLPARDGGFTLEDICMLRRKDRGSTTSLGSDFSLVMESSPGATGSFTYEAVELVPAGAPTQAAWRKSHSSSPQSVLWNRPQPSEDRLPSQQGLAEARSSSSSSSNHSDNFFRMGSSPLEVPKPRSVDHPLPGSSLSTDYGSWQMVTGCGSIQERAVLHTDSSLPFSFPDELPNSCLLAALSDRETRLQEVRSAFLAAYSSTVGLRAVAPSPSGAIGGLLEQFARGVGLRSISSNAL
# Procedure, shortened: as §1
smiles,measurement,setting,value
Nc1ncnc2c1ncn2[C@@H]1O[C@H](COP(=O)(O)OP(=O)(O)NP(=O)(O)O)[C@@H](O)[C@H]1O [adenylyl imidodiphosphate],NP40-soluble protein abundance,[1]; concentration: 8mM,0.987 ± 0.033
same,NP40-soluble protein abundance,[1]; concentration: 10mM,1 ± 0.059
same,NP40-soluble protein abundance,[2]; concentration: 1mM,0.987 ± 0.021
same,NP40-soluble protein abundance,[2]; concentration: 2mM,1 ± 0.019
same,NP40-soluble protein abundance,[2]; concentration: 4mM,1.03 ± 0.03
same,NP40-soluble protein abundance,[2]; concentration: 6mM,1.1 ± 0.053
same,NP40-soluble protein abundance,[2]; concentration: 8mM,1.11 ± 0.051
same,NP40-soluble protein abundance,[2]; concentration: 10mM,1.16 ± 0.06
same,NP40-soluble protein abundance,[3]; concentration: 1mM,1 ± 0.013
same,NP40-soluble protein abundance,[3]; concentration: 2mM,1.05 ± 0.074
same,NP40-soluble protein abundance,[3]; concentration: 4mM,0.992 ± 0.043
same,NP40-soluble protein abundance,[3]; concentration: 6mM,1.01 ± 0.04
same,NP40-soluble protein abundance,[3]; concentration: 8mM,1 ± 0.02
same,NP40-soluble protein abundance,[3]; concentration: 10mM,1.03 ± 0.016
same,NP40-soluble protein abundance,[4]; concentration: 1mM,0.998 ± 0.036
same,NP40-soluble protein abundance,[4]; concentration: 2mM,0.989 ± 0.024
same,NP40-soluble protein abundance,[4]; concentration: 4mM,1.02 ± 0.045
same,NP40-soluble protein abundance,[4]; concentration: 6mM,1 ± 0.019
same,NP40-soluble protein abundance,[4]; concentration: 8mM,1.01 ± 0.025
same,NP40-soluble protein abundance,[4]; concentration: 10mM,1.02 ± 0.047
same,NP40-soluble protein abundance,[5]; concentration: 1mM,0.952 ± 0.065
same,NP40-soluble protein abundance,[5]; concentration: 2mM,0.946 ± 0.053
same,NP40-soluble protein abundance,[5]; concentration: 4mM,0.945 ± 0.11
same,NP40-soluble protein abundance,[5]; concentration: 6mM,1.11 ± 0.13
same,NP40-soluble protein abundance,[5]; concentration: 8mM,1.16 ± 0.069
same,NP40-soluble protein abundance,[5]; concentration: 10mM,1.16 ± 0.12
same,NP40-soluble protein abundance,[6]; concentration: 1mM,0.996 ± 0.019
same,NP40-soluble protein abundance,[6]; concentration: 2mM,1.01 ± 0.021
same,NP40-soluble protein abundance,[6]; concentration: 4mM,1.037 ± 0.0067
same,NP40-soluble protein abundance,[6]; concentration: 6mM,1.04 ± 0.058
same,NP40-soluble protein abundance,[6]; concentration: 8mM,0.997 ± 0.035
same,NP40-soluble protein abundance,[6]; concentration: 10mM,1.01 ± 0.015
same,NP40-soluble protein abundance,[7]; concentration: 1mM,1.03 ± 0.035
same,NP40-soluble protein abundance,[7]; concentration: 2mM,0.993 ± 0.079
same,NP40-soluble protein abundance,[7]; concentration: 4mM,1.02 ± 0.057

# Exported bar-delimited: entries from further up
smiles | measurement | setting | value
Nc1ncnc2c1ncn2[C@@H]1O[C@H](COP(=O)(O)OP(=O)(O)NP(=O)(O)O)[C@@H](O)[C@H]1O [adenylyl imidodiphosphate] | NP40-soluble protein abundance | [1]; concentration: 8mM | 0.987 ± 0.033
same | NP40-soluble protein abundance | [1]; concentration: 10mM | 1 ± 0.059
same | NP40-soluble protein abundance | [2]; concentration: 1mM | 0.987 ± 0.021

# Reference: the supplement of paper PMC6411743
